Laboratory results: US20190202914A1
Residue numbers refer to the chain shown, from its start. No constants are given. Whether binding was seen depends on the method and setting. Binding can be weak; no strength is given.

B1: CL3 (antibody, human IgG1, V domains shown)
VH: EVQLVEIGGGEIQPGGSLRLSCAASGFNVSKNYMSWVRQAPGKGLEWVSVIYSGGGTEYAASVKGRFNISRDSSKNMLYLQMNNLRAEDTAVYYCARAVPRPHGTDIWGQGTMVTVSS
B2: CL5 (antibody, human IgG1, V domains shown)
VH: EVQLAETGGGLIQPGGSLRLSCAVSGFNVSKNYMSWVRQVPGKGLEWVAVVYSGGSKTYADSVKGRFILSRDNSDNTLYLQMNNLRAEDTAVYYCARAVPHSPSSFDIWGQGTMVTVSS
B3: CL11 (antibody, human IgG1, V domains shown)
VH: EVQLEETGGDLIQPGGSLRLSCTASGFNVSRIYMSWVRQAPGKGLEWVSVIYSGGSIYYADSVRGRFTISRDSSTNTVFLQMNSLRAEDSAVYYCARAVPSAPSSFDIWGQGTMVTVSS
B4: CL22 (antibody, human IgG1, V domains shown)
VH: EVQLVETGGGLIQPGGSLRLSCAVSGFTVRNNYMSWARQVPGKGLEWVSVIYSGGSITYADSVKGRFIISRDNSNNTLYLQMNGLRAEDTAVYYCARAVPHAPSAFDIWGQGTMVTVSS
B5: CL24 (antibody, human IgG1, V domains shown)
VH: EVQLVETGGGLIQPGGSLRLSCAASGLNVSRHYLSWVRQAPGKGLEWVAVIYSGGGIEYVDSVKGRFTISRDNANNTLYLQMRSLRTEDSAVYYCARAIPRPHGSDIWGQGTMVTVSS
B6: CL25 (antibody, human IgG1, V domains shown)
VH: EVQLVETGGGLIQPGGSLRLSCAASGFTVSSNYMSWVRQAPGKGLEWVSVIYSGGSTYYADSVKGRFTISRDNSKNTLYLQMSNLTAEDTAVYYCARAVPHSPSAFDRWGQGTLVTVSS
B7: CL30 (antibody, human IgG1, V domains shown)
VH: B3 VH with F79Y, S101H, S105N, I108K, M114R
B8: CL20 (antibody, human IgG1, V domains shown)
VH: EVQLVESGGGLVQPGGSLRLSCAASGFTFSNYWMHWVRQAPGKGLVWVSRINSDGSNTTYADSVKGRFTISRDNAKNTLYLQMNSLRAEDTAVYYCARWFGEHYYGMDVWGQGTTVTVSS

Biological target: cyno CTLA-4 expressed on 293 cells (293-cynoCTLA-4 cells) (cyno)
Experiment: flow cytometry (MFI) on 293 cells expressing cynomolgus CTLA-4, Alexa 488 anti-human (H+L) detection

binding, binds:
B1
B2
B3
B4
B5
B6
B7

Biological target: cyno CTLA-4 expressed on 293 cells (293-cynoCTLA-4 cells) (cyno)
Experiment: flow cytometry on 293-cynoCTLA-4 cells

binding, binds:
B1
B2
B3
B4
B5
B6
B7
B8
